Series [1] is described as follows: Body weight and splenocyte counts 7 days after trauma (NS-398 twice a day over 7 days). The series is classed as in vivo, BALB/c mice. As to the method:
Animals, Experimental Protocol, NS-398 preparation were as described in Example I. Macrophages were prepared as described initially under “Macrophage Preparation ” in Example I. After lysis of erythrocytes with ammonium chloride solution and centrifugation as described in Example I, macrophages were further prepared by resuspending the pellet in RPMI-1640 (Gibco BRL, Life Technologies Inc) containing 2 mmol/L L-glutamine, 100 U/mL penicillin, 100 μg/mL streptomycin, 0.25 μg/mL amphotericin B, and 10% heat-inactivated fetal calf serum (Gibco BRL, Life Technologies Inc), counted via hemocytometer and diluted to a final concentration of 5×10^6 cells/mL, and plated in 96 well plates in a volume of 0.2 mL per well. After allowing macrophages to adhere for 2 hours, the remaining cells were suctioned off and the macrophages were cultured in the +/−1 ng LPS 055:B5 (Sigma, St. Louis, Mo.) per mL at 37° C. in 5% carbon dioxide incubators. Supernatants were harvested at 24 hours and stored at −70° C. until analysis for batch enzyme-linked immunosorbent assay processing to determine prostaglandin and cytokine production.
Body weight and splenocyte recovery after injury±NS-398 were recorded.
BALB/C mice (n=8/group) were given 10mg/kg NS398 intraperitoneally BID for 7 days, starting immediately after sham injury or trauma (femur fracture+40% hemorrhage). Four groups, sham+placebo (C); sham+NS398 (CN); trauma+placebo (T); or trauma+NS398 (TN) were studied. On day 7 after trauma, mice were sacrificed and splenic macrophages evaluated for PGE2, TNF-α and NO production (via Student's t-test). In a separate study, mice (n=10-11/group) were traumatized and given NS398 for 7 days. On day 7, cecal ligation and puncture was performed, and mice evaluated for survival over 3 weeks (via Log-rank test).

The mark [2] stands for this setting: Control (sham) + NS-398, 7 days after injury.
The mark [3] stands for this setting: Trauma + NS-398, 7 days after injury.

Read-outs that look alike come from different tables or passages of the source.

For the compound `CS(=O)(=O)Nc1ccc([N+](=O)[O-])cc1OC1CCCCC1` [NS-398, N-(2-cyclohexyloxy-4-nitrophenyl)methanesulfonamide], the “Total Splenoctyes/mouse” value in series [1] (Control + NS-398, day 7) was 8.8 ± 1.6 × 10^6; in series [1] (Trauma + NS-398, day 7) it was 10.9 ± 2.3 × 10^6. Moreover, the “differences in splenocyte counts” value in series [1] (control versus trauma±NS-398 mice) is on record as “no differences”. Moreover, the Spleen wt by setting is: under setting [2], 87.3 ± 3.2 mg; under setting [3], 125.3 ± 5.4 mg. Also, the “Total Splenocytes/Mouse” value is, setting by setting: under setting [2], 8.8 ± 0.6 × 10^6; under setting [3], 10.9 ± 0.8 × 10^6.

The values above are taken from US20020006915A1, “Use of COX-2 inhibitors to treat sepsis, complications thereof, and EP receptor modulation” (priority 2000, published 2002).
